1 substance from article PMC2661055, “The C-terminal sequence of the large hepatitis delta antigen is variable but retains the ability to bind clathrin” (Virology Journal, 2009) can be followed below.

Sequences of proteins named here, by UniProt entry; tags and fusion partners are left off.
UniProt Q00610: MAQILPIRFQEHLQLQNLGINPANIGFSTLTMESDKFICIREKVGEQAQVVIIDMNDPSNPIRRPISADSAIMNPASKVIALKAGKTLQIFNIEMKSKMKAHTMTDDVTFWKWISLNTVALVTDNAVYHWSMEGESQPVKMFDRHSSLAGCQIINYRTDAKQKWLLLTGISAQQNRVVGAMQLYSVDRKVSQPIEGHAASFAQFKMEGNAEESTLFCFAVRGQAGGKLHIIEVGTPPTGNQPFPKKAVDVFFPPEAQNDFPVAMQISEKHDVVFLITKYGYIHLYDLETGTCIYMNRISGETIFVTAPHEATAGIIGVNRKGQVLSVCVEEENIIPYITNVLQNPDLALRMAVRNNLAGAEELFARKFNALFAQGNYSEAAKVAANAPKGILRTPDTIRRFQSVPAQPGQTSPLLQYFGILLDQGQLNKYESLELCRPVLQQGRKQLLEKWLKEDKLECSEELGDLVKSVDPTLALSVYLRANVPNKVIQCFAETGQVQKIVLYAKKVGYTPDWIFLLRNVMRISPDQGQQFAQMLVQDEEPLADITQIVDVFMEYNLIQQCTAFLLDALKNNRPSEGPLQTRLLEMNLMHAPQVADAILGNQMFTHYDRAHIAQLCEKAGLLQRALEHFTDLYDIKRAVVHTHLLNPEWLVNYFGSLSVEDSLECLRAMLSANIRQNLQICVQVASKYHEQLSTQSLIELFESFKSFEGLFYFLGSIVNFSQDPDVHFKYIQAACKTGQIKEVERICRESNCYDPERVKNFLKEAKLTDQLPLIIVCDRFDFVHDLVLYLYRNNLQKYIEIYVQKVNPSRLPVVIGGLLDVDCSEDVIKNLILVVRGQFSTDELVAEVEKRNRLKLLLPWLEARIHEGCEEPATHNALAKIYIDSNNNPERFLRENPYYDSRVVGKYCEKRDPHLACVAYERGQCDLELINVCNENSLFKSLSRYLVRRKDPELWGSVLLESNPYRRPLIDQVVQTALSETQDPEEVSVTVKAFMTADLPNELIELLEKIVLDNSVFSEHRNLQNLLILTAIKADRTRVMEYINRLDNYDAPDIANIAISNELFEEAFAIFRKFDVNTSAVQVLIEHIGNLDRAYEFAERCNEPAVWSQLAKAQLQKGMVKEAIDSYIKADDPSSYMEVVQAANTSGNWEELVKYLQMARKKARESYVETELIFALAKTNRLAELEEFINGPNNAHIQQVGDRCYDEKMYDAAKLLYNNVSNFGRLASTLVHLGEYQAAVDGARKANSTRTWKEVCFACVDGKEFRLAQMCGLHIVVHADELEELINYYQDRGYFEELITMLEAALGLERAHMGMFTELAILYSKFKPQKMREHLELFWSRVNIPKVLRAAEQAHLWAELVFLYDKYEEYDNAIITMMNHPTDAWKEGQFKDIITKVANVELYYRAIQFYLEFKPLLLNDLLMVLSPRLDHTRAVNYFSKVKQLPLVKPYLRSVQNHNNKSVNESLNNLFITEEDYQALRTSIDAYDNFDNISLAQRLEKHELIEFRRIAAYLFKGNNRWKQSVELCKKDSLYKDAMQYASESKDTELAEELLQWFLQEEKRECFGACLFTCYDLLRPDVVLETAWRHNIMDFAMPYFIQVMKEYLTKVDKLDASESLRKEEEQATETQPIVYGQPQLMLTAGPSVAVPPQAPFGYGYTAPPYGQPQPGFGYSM

No constants are given. Whether binding was seen depends on the method and setting. Binding seen in cells or lysates may run through a third protein. Some results given as binding are weak or reduced against the parent protein; the word gives no strength. Where a sequence is shown, tags or fusion partners need not be part of it.

This experiment deals with T1, GST-LDIII_(C(198–210)) (GST fused to amino acids 198-210 of genotype III LDAg) (hepatitis delta virus genotype III (Peru-1 strain)).
T1 sequence: FTPPPPGYYWVPG
In words: pull-down; GST or GST-LD_(C(198–210)) on Glutathione Sepharose 4B beads incubated with HuH-7 cell lysate for 16 h at 4°C; three washes with 0.05% Tween-20 in PBS; blot for CHC; mean of three experiments; only the target purified.

Take “clathrin heavy chain (full-length, endogenous in HuH-7 cells) (from UniProt Q00610 1-1675)”: the binding result is on record as “binds”.
